# Publication PMC4682653
# For at least one entry, the source does not settle the construct or the ends of the probe. For part of these data: The comparison behind a weaker result is the experiment's own reference, which may not be listed here. For part of these data: Where a protein sequence is shown, tags need not be part of it. For part of these data: The direction of at least one scale is not stated here.
# Experiments:
# [1] = target: UvrY-His6 phosphorylated (UvrY-P) (Escherichia coli MG1655) (UniProt P0AED5); assay: DNase I footprinting; details: 0.25-0.7 uM, only upstream IR protected, 20 mM Tris-HCl pH 7.5, 10% glycerol, 50 mM KCl, 3 mM MgCl2, 1 mM DTT, 100 ug/mL BSA, 0.5 nM DNA, 30 min at 37 C (Fig 3 legend: room temperature), recombinant protein, residues 1-218, protein details: C-terminal His6, label: 5'-32P on one strand, probe letters rebuilt from the primers and the genome
# [2] = target: T1, UvrY-His6 non-phosphorylated (Escherichia coli MG1655) (UniProt P0AED5); assay: EMSA; details: non-phosphorylated, about 7% UvrY-P may account for binding; 20 mM Tris-HCl pH 7.5, 10% glycerol, 50 mM KCl, 3 mM MgCl2, 1 mM DTT, 100 ug/mL BSA, 0.5 nM DNA, 30 min at 37 C (Fig 3 legend: room temperature); recombinant protein; residues 1-218; protein details: C-terminal His6; label: 5'-32P; probe letters rebuilt from the primers and the genome
# T1 sequence (looked up): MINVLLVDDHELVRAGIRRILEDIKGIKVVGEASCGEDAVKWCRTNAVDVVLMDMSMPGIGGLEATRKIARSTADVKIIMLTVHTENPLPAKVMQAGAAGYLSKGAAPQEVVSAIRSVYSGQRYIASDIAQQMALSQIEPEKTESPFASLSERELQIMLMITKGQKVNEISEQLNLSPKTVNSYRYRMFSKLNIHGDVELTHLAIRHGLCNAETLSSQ
# [3] = target: UvrY-His6 phosphorylated (UvrY-P) (Escherichia coli MG1655) (UniProt P0AED5); assay: EMSA; details: in vitro phosphorylated; 20 mM Tris-HCl pH 7.5, 10% glycerol, 50 mM KCl, 3 mM MgCl2, 1 mM DTT, 100 ug/mL BSA, 0.5 nM DNA, 30 min at 37 C (Fig 3 legend: room temperature); recombinant protein; residues 1-218; protein details: C-terminal His6; label: 5'-32P; probe letters rebuilt from the primers and the genome
Sequence,binding result [1],binding result [2],binding signal (fold affinity vs non-phosphorylated UvrY) [3]
CAGGAAAATCTGATTGGTCATCTGGTGACTCAGAAAAGGCTAAAACTGCCGCCCACACTATTTATCGCGACGCTGGAAGAAGAGTTAGAGGTCATCTCGGTGTGTAATCTCTCCGGTGAAGTGTGCAAAGAGACGCTGGGAACACGTAAACGGACGCATTTAGCCTCAAATCTTGCGGAATTCCTTAATCAACTTAAGCCTCTTCTGTAATCCAAATACCCCATCTGGTTGTGAGAGATCTCTTACAGACTCTGTAGGAGATCGCCAGGAAATAAGCGAATACTTAAAAAGATAAGAATCGTTATTTTCATTTAAAATCAAAATGTTGATTGTTAATTCTTAACTTTCATATGAAATTTTCCTTAAGGCATTGTCTGTAAGCGCCTTGTAAGACTTCGCGAAAAAGACGATTCTATCTTCGTCGACAGGGAGTCAGACAACGAAGTGAACATCAGGATGATGACAC (double strand) [csrB footprint DNA (-420 to +46)],binds,–,–
CAGGCGCACTCATCACAAAATGCGTCTGTTGATAATTCAAATTAGTCAAAGCGGTCGTCTCCGTCAGTCAAAGCTTTGTGGCGATTATACCTGAACCATAATAAAAGGCGGATTTTTCGGCGTGAGCGTTGTAAGTAAAAGCCATACGCTTTGTGAGACATTGCCGATAGTCTTTATGCGAAATAGCAGAGAAAATTCTGCGATGCATGTCAAATAAGCTATATAAATCAGTGAATTGCTTTTATATAAAACTCTGAAAATGTGCAAATACTGATGGCGGTTGATTGTTTGTTTAAAGCAAAGGCGTAAAGTAGCACCCATAGAGCGAGGACGCTAACAGGAACAATGACTCAGGATGAGGGTCAGGAGCGCCAGGAGGCGAAGACAGAGGATTGTCAGGAAGACAAACGTCCGGAGAC (double strand) [csrC footprint DNA (-319 to +100)],binds,–,–
CTGGCGCTCCTGACCCTCATCCTGAGTCATTGTTCCTGTTAGCGTCCTCGCTCTATGGGTGCTACTTTACGCCTTTGCTTTAAACAAACAATCAACCGCCATCAGTATTTGCACATTTTCAGAGTTTTATATAAAAGCAATTCACTGATTTATATAGCTTATTTGACATGCATCGCAGAATTTTCTCTGCTATTTCGCATAAAGACTATCGGCAATGTCTCACAAAGCGTATGGCTTTTACTTACAACGCTCACGCCGAAAAATCCGCCTTTTATTATGGTTCAGGTATAATCGCCACAAAGC (double strand) [csrC EMSA probe (-247 to +56)],–,binds more weakly,2
GCGGAATTCCTTAATCAACTTAAGCCTCTTCTGTAATCCAAATACCCCATCTGGTTGTGAGAGATCTCTTACAGACTCTGTAGGAGATCGCCAGGAAATAAGCGAATACTTAAAAAGATAAGAATCGTTATTTTCATTTAAAATCAAAATGTTGATTGTTAATTCTTAACTTTCATATGAAATTTTCCTTAAGGCATTGTCTGTAAGCGCCTTGTAAGACTTCGCGAAAAAGACGATTCTATCTTCGTCGACAGGGAGTCAGACAACGAAGTGAACATCAGGATGATGACACTTC (double strand) [csrB EMSA probe (-246 to +49)],–,binds more weakly,2
